Data published in patent US20250120399A1, “METHODS AND COMPOSITIONS FOR ALTERING METABOLITES IN VITIS SPP. AND PREVENTING PESTS AND PATHOGENS” (Impello Biosciences, Inc., priority 2022, published 2025).
“And” between values parts separate entries of the source, which are not always exact repeats. Equal values may be shown once. This continues a long series; more values of the same kind are listed elsewhere.

Test system: Grapevine (Malbec variety)
Assay: Leaf sap Brix by refractometer, Malbec field trial (Example 1)
Assay type: in vivo, Vitis vinifera
Settings: 2.5 mM MDJ
Description: An eliciting composition and methods of use to alter metabolite production were tested on 6 acres of a Malbec variety planted in 1999 in Napa Valley, California. Plants were spaced 5′×10′ (900 vines per acre) and grouped into randomized blocks of 900 vines per group, with six replicates covering three acres for the treatment group, and six replicates covering three acres for the control group. The treatment group received two applications of 32 oz of MDJ applied at a rate of 100 gallons per acre (2.5 mM), once prior to veraison on Aug. 9, 2021 and again when 5-10% of berries were starting to blush (veraison) using a ground spray rig (backpack sprayer). From within each replicate, three plants were selected at random, and 25 leaves from each plant were randomly selected for analysis. The internal sap of the leaves was tested using a refractometer on the days shown below in Table 4 and FIG. 1. Data from each replicate was averaged (25 leaves from each plant, 3 plants).

## CCCCCC1C(=O)CCC1CC(=O)OC (stereo not drawn) [MDJ, methyl dihydrojasmonate]
Replicate 2 sampled on Sep. 22, 2021, MDJ treated Plant #1, leaf no. 1-25, one line per leaf
  Brix, individual leaf: 21.9 and 26.0 (2×) and 26.7 and 23.5 and 26.5 (2×) and 22.6 (2×) and 24.8 (2×) and 27.2 and 26.1 and 25.8 and 24.9
Replicate 2 sampled on Sep. 22, 2021, MDJ treated Plant #2, leaf no. 1-25, one line per leaf
  Brix, individual leaf: 26.3 and 22.7 and 24.6 and 27.0 and 24.5 (2×) and 22.8 and 26.4 and 24.1 and 27.7 and 26.6 and 25.3
Replicate 2 sampled on Sep. 22, 2021, MDJ treated Plant #3, leaf no. 1-25, one line per leaf
  Brix, individual leaf: 26.00 (3×) and 20.00 (2×) and 19.10 and 22.80 and 19.80 and 19.40 and 27.00 and 24.00 and 23.00 and 26.20 and 22.00
Replicate 3 sampled on Sep. 30, 2021, MDJ treated Plant #1, leaf no. 1-25, one line per leaf
  Brix, individual leaf: 28.7 (2×) and 24.5 and 23.6 and 26.0 (2×) and 28.0 (2×) and 27.1 and 26.4 and 29.1 and 25.0 (2×) and 28.5 and 29.9 and 29.5 (3×) and 30.4 and 31.1 and 33.0 and 29.0 (2×) and 23.8 and 30.0
Replicate 3 sampled on Sep. 30, 2021, MDJ treated Plant #2, leaf no. 1-25, one line per leaf
  Brix, individual leaf: 29.3 and 28.0 and 29.1 and 26.8 and 28.5 and 26.4 and 29.8 (2×) and 29.9 and 28.7 and 29.4 and 28.3 and 29.5 (3×) and 33.3 and 32.0 and 32.9 and 32.5 and 28.8 and 30.4 and 29.6 and 28.6 and 28.9 and 27.1
Replicate 3 sampled on Sep. 30, 2021, MDJ treated Plant #3, leaf no. 1-25, one line per leaf
  Brix, individual leaf: 31.9 and 29.8 (3×) and 29.2 and 29.3 and 29.9 (5×) and 28.5 (2×) and 26.7 and 29.5 (3×) and 32.0 and 29.0 and 28.7 and 26.9 and 29.6 and 30.0 and 30.2 and 28.9
